Source: patent US20260265280A1, “Prevention/Treatment of Ischemic Reperfusion Injury” (Rev Therapeutics, priority 2023, published 2026)
Some results were stated once for a whole list of compounds, not compound by compound.

Assay: In vivo rat pharmacokinetic studies (cleavage of compounds into compound Z)

O=P([O-])([O-])OCn1/c(=N\c2c(F)cc(F)cc2F)n([C@H]2CCOC2)c2nc(NC3CCC(O)CC3)ncc21.[Na+].[Na+] (stereo partly drawn) [Compound Q8, [[(8Z)-2-[(4-hydroxycyclohexyl)amino]-9-[(3S)-tetrahydrofuran-3-yl]-8-(2,4,6-trifluorophenyl)imino-purin-7-yl]methoxy-sodiooxy-phosphoryl]oxysodium]
cleavage at 2 hr (2 hr post-dosing): above 90%

C[N+](C)(C)CCOC(=O)O[C@H]1CC[C@H](Nc2ncc3nc(Nc4c(F)cc(F)cc4F)n([C@H]4CCOC4)c3n2)CC1 [Compound Q12, trimethyl-[2-[4-[[9-[(3S)-tetrahydrofuran-3-yl]-8-(2,4,6-trifluoroanilino)purin-2-yl]amino]cyclohexoxy]carbonyloxyethyl]ammonium]
compound still present at 2 hrs post-dosing: 80-90%
